In US20090082406A1, “Cancer Therapy” (National Health Research Institutes, priority 2004, published 2009):
For at least one compound, name, drawing or mass did not settle the structure.

Experiments:
Format in all cases: cell-based, human
Conditions in all cases: 3 days, toglitazone (10 μM) alone
p27^kip1 = assay: Western blotting assay of p27^kip1 in DBTRG 05MG cells
Experimental: (§1) Cell cycle-regulating proteins, cyclin-dependent kinase 2 (CDK-2), cyclin A, Rb protein, and p27^kip1 were tested to determine the effect of lovastain and troglitazone on regulating the cell cycle. Note that p27^kip1 is a universal CDK inhibitor and can modulate the drug resistance of cancer cells (Lloyd, R. V., Am. J. Pathol. 1999, 154: 313-323). Rb binds to many proteins, including several important gene regulatory proteins. Its binding capacity depends on its state of phosphoration. When Rb is dephosphorated, it binds to a set of regulatory proteins (e.g., E2F-1) that favor cell proliferation; and when phosphorated, it releases these proteins, thereby allowing them to act. […] The concentrations of cyclin-dependent kinase 2 (CDK-2), cyclin A, p27^kip1, Rb protein, and E2F-1 were determined by the Western blotting assay. Briefly, whole cell lysates were prepared with a radioimmunoprecipitation buffer supplemented with protease inhibitors (Sigma). The lysates were subjected to a sodium dodecylsulfate-polyacrylamide gel electrophoresis and transferred to polyvinylidene difluoride membranes (Bio-Rad) by electroblotting. After having been blocked for 1 hour at room temperature, the membranes were probed with a primary antibody overnight at 4° C. and then with a horseradish peroxidase-conjugated secondary antibody for 1 hour. […]

[1] = system: cyclin-dependent kinase 2 (CDK-2); assay: Western blotting assay of CDK-2 in DBTRG 05MG cells
Experimental: as §1

cyclin A = assay: Western blotting assay of cyclin A in DBTRG 05MG cells
Experimental: as §1

Rb protein = assay: Western blotting assay of Rb and phosphor-Rb (Ser807/811) in DBTRG 05MG cells
Experimental: as §1

E2F-1 = assay: Western blotting assay of E2F-1 in DBTRG 05MG cells
Experimental: as §1

Cc1c(C)c2c(c(C)c1O)CCC(C)(COc1ccc(CC3SC(=O)NC3=O)cc1)O2 (centres unmarked) [troglitazone]
little or no change: level of p27^kip1 (p27^kip1) | level of CDK-2 [1] | level of cyclin A (cyclin A) | level of Rb (Rb protein) | level of E2F-1 (E2F-1)
